{"source": "patent US9657037B2", "about": "“Pyrrole compounds with silicon incorporation” (COUNCIL OF SCIENTIFIC AND INDUSTRIAL RESEARCH, priority 2013, dated 2017)", "origin": "cited, not measured here", "system": "Mycobacterium tuberculosis H37Rv", "conditions": "according to literature (Biava. M et. al; J. Med. Chem 2008; 51; 3644); cited from earlier work", "note": "For at least one compound, name, drawing or mass did not settle the structure."}
{"compound": "CO[C@H]1/C=C/O[C@@]2(C)Oc3c(C)c(O)c4c(O)c(c(/C=N/N5CCN(C)CC5)c(O)c4c3C2=O)NC(=O)/C(C)=C\\C=C\\[C@H](C)[C@H](O)[C@@H](C)[C@@H](O)[C@@H](C)[C@H](OC(C)=O)[C@@H]1C", "note": "[rifampicin]", "values": [{"measurement": "MIC", "value": 0.25, "unit": "µg/mL"}]}
